The values that follow come from publication PMC7806630, “Molecular basis of the interaction of the human tyrosine phosphatase PTPN3 with the hepatitis B virus core protein” (Scientific Reports, 2021).

Sequences of proteins named here, by UniProt entry; tags and fusion partners are left off. A change or cut given only in a name is not applied to a line headed by its entry.
UniProt P29074: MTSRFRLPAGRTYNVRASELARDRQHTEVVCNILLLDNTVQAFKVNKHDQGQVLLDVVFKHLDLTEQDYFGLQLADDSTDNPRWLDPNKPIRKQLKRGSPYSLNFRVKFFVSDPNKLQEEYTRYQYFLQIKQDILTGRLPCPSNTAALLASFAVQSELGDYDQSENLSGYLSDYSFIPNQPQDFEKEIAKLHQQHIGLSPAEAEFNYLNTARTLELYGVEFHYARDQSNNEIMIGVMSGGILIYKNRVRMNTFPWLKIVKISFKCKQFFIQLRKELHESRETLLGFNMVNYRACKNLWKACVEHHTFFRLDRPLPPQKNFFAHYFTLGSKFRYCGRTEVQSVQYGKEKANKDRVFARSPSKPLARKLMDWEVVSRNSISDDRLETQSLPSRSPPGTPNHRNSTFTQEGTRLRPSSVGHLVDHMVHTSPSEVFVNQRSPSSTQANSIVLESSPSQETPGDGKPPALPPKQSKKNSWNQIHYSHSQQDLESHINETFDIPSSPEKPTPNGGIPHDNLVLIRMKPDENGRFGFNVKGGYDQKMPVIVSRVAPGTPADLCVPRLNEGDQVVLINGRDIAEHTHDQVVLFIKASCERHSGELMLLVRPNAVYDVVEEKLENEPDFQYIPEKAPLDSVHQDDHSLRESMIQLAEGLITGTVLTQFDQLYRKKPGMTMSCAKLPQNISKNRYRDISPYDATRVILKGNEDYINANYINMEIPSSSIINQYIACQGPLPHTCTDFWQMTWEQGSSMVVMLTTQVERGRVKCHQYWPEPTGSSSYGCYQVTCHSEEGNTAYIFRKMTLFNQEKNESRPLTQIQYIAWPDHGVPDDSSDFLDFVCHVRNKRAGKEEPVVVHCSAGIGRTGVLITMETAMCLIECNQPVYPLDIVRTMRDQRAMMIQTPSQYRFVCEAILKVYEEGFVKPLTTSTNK

This assay addresses T1, biotinylated PBM-HBc peptide (hepatitis B virus).
T1 sequence (peptide, biotin (position not stated)): RRRRSQSRESQC
The assay can be described thus: holdup assay; automated high-throughput holdup assay, biotinylated PBM-HBc peptide against the human PDZ domain library, duplicates; threshold binding intensity 0.2.

No constants are given. Whether binding was seen depends on the method and setting. A result given as binding can be weak or reduced; the word gives no strength.

With “PDZ domain of the non-receptor protein tyrosine phosphatase 4 (PTPN4) (from UniProt P29074) (domain or fragment)”, the binding entry is given as “binds”.
